{"source": "PubChem BioAssay AID1259405, NCATS | 2018", "aim": "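Mouse-designed siRNAs used to find CHO productivity engineering targets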 (primary screen)", "cell system": "Chinese hamster CHO-K1 ovary cells with stable secreted eGFP expression", "reagent": "single siRNA against mouse genes, 0.8 pmol siRNA per well (2 µl of 400 nM stock)", "timing": "3 days", "detection": "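Percent of the per-plate non-targeting control median for intracellular GFP per well by laser scanning cytometry and for cell viability by ATP luminescence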", "reading the numbers": "GFP, % of control: higher = more GFP per well, higher productivity; viability (ATP), % of control: higher = more viable cells (more ATP)", "active means": "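a knock-down is called active if GFP reaches 120% or more of non-targeting control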", "note": "The whole screen tested about 50,000 reagents; this is an unselected part. In the full data, about 4,000 (8%) got an active call. 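Mouse siRNA library applied to hamster cells; one well for each siRNA.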 Entries without a mark were called inactive. Reagents against one gene are numbered here. No sequences are given here."}
{"target":"Hfm1","siRNA no.":1,"GFP, % of control":78.9,"viability (ATP), % of control":93.6}
{"target":"Hfm1","siRNA no.":2,"GFP, % of control":85,"viability (ATP), % of control":93.5}
{"target":"Hfm1","siRNA no.":3,"GFP, % of control":66.5,"viability (ATP), % of control":61.3}
{"target":"Phf5a","siRNA no.":1,"GFP, % of control":69.7,"viability (ATP), % of control":46.7}
{"target":"Phf5a","siRNA no.":2,"GFP, % of control":99.3,"viability (ATP), % of control":64.7}
{"target":"Phf5a","siRNA no.":3,"GFP, % of control":76.3,"viability (ATP), % of control":100}
{"target":"Paip2","siRNA no.":1,"GFP, % of control":51.6,"viability (ATP), % of control":78.1}
{"target":"Paip2","siRNA no.":2,"GFP, % of control":61.7,"viability (ATP), % of control":73.3}
{"target":"Paip2","siRNA no.":3,"GFP, % of control":56.1,"viability (ATP), % of control":110}
{"target":"Fgf11","siRNA no.":1,"GFP, % of control":52.7,"viability (ATP), % of control":59.4}
{"target":"Fgf11","siRNA no.":2,"GFP, % of control":53.9,"viability (ATP), % of control":81.6}
{"target":"Fgf11","siRNA no.":3,"GFP, % of control":75.7,"viability (ATP), % of control":65.3}
{"target":"Cldn23","siRNA no.":1,"GFP, % of control":72.8,"viability (ATP), % of control":63.8}
{"target":"Cldn23","siRNA no.":2,"GFP, % of control":100,"viability (ATP), % of control":90.2}
{"target":"Cldn23","siRNA no.":3,"GFP, % of control":76.7,"viability (ATP), % of control":84.6}
{"target":"A830019P07Rik","siRNA no.":1,"GFP, % of control":76.4,"viability (ATP), % of control":53.2}
{"target":"A830019P07Rik","siRNA no.":2,"GFP, % of control":77.1,"viability (ATP), % of control":71.5}
{"target":"A830019P07Rik","siRNA no.":3,"GFP, % of control":60.9,"viability (ATP), % of control":78}
{"target":"Creb3l1","siRNA no.":1,"GFP, % of control":69.7,"viability (ATP), % of control":37.7}
{"target":"Creb3l1","siRNA no.":2,"GFP, % of control":67.7,"viability (ATP), % of control":79.5}
{"target":"Creb3l1","siRNA no.":3,"GFP, % of control":111,"viability (ATP), % of control":104}
{"target":"Esrp1","siRNA no.":1,"GFP, % of control":82.2,"viability (ATP), % of control":77.7}
{"target":"Esrp1","siRNA no.":2,"GFP, % of control":97.8,"viability (ATP), % of control":85.5}
{"target":"Esrp1","siRNA no.":3,"GFP, % of control":71.5,"viability (ATP), % of control":53.5}

Taken from above.
Value of A830019P07Rik #3 in “GFP, % of control”: 60.9
Value for Hfm1 #1 under “GFP, % of control”: 78.9
Phf5a #2, GFP, % of control → 99.3
Paip2 #3, GFP, % of control = 56.1
Value for Fgf11 #2 in “GFP, % of control”: 53.9

Additional records:
{"target":"4933427D14Rik","siRNA no.":1,"GFP, % of control":77.2,"viability (ATP), % of control":91}
{"target":"4933427D14Rik","siRNA no.":2,"GFP, % of control":70.4,"viability (ATP), % of control":87.2}
{"target":"4933427D14Rik","siRNA no.":3,"GFP, % of control":102,"viability (ATP), % of control":112}
{"target":"2310067E19Rik","siRNA no.":1,"GFP, % of control":105,"viability (ATP), % of control":87.7}
{"target":"2310067E19Rik","siRNA no.":2,"GFP, % of control":27.3,"viability (ATP), % of control":14.5}
{"target":"2310067E19Rik","siRNA no.":3,"GFP, % of control":73.5,"viability (ATP), % of control":71.7}
{"target":"Ppp1r42","siRNA no.":1,"GFP, % of control":65.2,"viability (ATP), % of control":87.9}
{"target":"Ppp1r42","siRNA no.":2,"GFP, % of control":66.8,"viability (ATP), % of control":55.8}
{"target":"Ppp1r42","siRNA no.":3,"GFP, % of control":68.2,"viability (ATP), % of control":83}
{"target":"Fgf23","siRNA no.":1,"GFP, % of control":73.2,"viability (ATP), % of control":77.4}
{"target":"Fgf23","siRNA no.":2,"GFP, % of control":102,"viability (ATP), % of control":84.4}
{"target":"Fgf23","siRNA no.":3,"GFP, % of control":54.9,"viability (ATP), % of control":63.1}
{"target":"Asprv1","siRNA no.":1,"GFP, % of control":119,"viability (ATP), % of control":97.2}
{"target":"Asprv1","siRNA no.":2,"GFP, % of control":113,"viability (ATP), % of control":70}
{"target":"Asprv1","siRNA no.":3,"GFP, % of control":61.7,"viability (ATP), % of control":80.2}
{"target":"Abcb1a","siRNA no.":1,"GFP, % of control":107,"viability (ATP), % of control":92.9}
{"target":"Abcb1a","siRNA no.":2,"GFP, % of control":86.1,"viability (ATP), % of control":80.7}
{"target":"Abcb1a","siRNA no.":3,"GFP, % of control":79.7,"viability (ATP), % of control":75.5}
{"target":"Zfpl1","siRNA no.":1,"GFP, % of control":41.6,"viability (ATP), % of control":60}
{"target":"Zfpl1","siRNA no.":2,"GFP, % of control":95.2,"viability (ATP), % of control":79.7}
{"target":"Nmur2","siRNA no.":1,"GFP, % of control":80.5,"viability (ATP), % of control":65.8}
{"target":"Nmur2","siRNA no.":2,"GFP, % of control":72.3,"viability (ATP), % of control":56.3}
{"target":"Nmur2","siRNA no.":3,"GFP, % of control":44.9,"viability (ATP), % of control":53.3}
{"target":"Qrfpr","siRNA no.":1,"GFP, % of control":109,"viability (ATP), % of control":90.3}
{"target":"Qrfpr","siRNA no.":2,"GFP, % of control":76,"viability (ATP), % of control":76.4}
{"target":"Qrfpr","siRNA no.":3,"GFP, % of control":84.7,"viability (ATP), % of control":82.1}
{"target":"Anks3","siRNA no.":1,"GFP, % of control":45.6,"viability (ATP), % of control":71.3}
{"target":"Anks3","siRNA no.":2,"GFP, % of control":64.5,"viability (ATP), % of control":94.7}
{"target":"Anks3","siRNA no.":3,"GFP, % of control":52,"viability (ATP), % of control":66}
